Library screen at single concentrations

Sequences of proteins named here, by UniProt entry; tags and fusion partners are left off. Residues count along the entry.
UniProt P9WPC5, whole entry: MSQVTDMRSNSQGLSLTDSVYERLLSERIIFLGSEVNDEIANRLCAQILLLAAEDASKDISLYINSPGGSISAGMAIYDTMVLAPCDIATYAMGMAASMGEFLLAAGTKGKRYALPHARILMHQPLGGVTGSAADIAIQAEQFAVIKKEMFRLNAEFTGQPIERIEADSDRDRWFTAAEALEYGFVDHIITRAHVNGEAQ
UniProt P9WPC3, whole entry partner: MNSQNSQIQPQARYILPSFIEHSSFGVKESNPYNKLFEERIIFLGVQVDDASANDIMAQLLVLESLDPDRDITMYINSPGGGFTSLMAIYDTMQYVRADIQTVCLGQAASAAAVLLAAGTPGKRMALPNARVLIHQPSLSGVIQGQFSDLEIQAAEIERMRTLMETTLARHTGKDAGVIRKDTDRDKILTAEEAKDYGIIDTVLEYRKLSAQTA
UniProt Q8IDJ8, 1-583: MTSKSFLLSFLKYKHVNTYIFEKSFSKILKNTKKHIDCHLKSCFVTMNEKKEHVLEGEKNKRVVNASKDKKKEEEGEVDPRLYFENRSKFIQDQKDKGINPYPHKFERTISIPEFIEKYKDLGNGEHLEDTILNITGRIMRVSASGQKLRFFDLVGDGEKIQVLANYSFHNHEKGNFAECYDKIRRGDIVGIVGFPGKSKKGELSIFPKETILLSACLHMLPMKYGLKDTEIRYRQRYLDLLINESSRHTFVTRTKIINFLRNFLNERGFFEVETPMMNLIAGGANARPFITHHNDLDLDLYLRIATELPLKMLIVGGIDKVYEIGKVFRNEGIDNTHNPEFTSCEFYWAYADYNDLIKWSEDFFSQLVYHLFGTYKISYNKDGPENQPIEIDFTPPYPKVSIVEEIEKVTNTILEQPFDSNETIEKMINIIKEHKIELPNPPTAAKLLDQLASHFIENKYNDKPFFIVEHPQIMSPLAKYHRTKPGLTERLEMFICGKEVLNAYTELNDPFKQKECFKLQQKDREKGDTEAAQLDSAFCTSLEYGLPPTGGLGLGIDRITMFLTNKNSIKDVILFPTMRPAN
UniProt P9WFT3, whole entry: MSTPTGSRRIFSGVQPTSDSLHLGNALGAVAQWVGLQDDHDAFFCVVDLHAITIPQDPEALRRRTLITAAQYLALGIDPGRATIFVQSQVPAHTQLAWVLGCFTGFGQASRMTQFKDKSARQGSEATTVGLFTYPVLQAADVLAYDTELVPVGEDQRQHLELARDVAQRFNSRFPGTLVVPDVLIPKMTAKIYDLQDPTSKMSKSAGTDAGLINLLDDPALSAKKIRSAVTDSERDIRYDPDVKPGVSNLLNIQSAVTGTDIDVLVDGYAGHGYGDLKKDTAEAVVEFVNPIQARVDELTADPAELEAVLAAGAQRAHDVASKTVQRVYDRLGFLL
UniProt A4I591, 1-473: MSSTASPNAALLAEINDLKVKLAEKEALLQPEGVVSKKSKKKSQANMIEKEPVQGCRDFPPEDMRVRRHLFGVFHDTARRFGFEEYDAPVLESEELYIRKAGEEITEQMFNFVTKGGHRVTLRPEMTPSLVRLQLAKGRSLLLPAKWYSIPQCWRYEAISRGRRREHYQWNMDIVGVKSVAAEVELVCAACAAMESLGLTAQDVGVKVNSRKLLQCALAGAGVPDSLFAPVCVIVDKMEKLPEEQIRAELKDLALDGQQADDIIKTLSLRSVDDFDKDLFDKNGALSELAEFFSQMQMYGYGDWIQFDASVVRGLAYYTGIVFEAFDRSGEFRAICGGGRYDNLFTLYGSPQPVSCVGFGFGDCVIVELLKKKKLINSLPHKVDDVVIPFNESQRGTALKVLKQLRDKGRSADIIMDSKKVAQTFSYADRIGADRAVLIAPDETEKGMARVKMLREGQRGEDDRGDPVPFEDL
UniProt Q4DA54, 1-478: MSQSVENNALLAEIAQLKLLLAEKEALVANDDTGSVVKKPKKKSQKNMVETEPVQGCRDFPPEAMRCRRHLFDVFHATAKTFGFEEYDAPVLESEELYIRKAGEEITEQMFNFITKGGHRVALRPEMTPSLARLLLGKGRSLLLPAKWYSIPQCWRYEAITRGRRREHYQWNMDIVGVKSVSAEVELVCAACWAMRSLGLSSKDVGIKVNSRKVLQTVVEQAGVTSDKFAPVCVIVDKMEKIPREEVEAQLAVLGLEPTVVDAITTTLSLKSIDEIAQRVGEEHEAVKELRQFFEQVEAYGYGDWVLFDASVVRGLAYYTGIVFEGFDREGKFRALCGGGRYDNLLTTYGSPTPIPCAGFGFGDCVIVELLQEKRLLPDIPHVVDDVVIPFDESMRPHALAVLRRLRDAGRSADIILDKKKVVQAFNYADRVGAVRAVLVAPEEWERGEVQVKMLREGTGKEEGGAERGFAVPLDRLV

From ChEMBL document CHEMBL3988442, “University of Dundee, Small-Polar-MMV Screening Library” (2021).

ClpP1P2: 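Protease assay of ClpP1P2, read by the AMC dye that it sets free. Target: ClpP1P2, Mycobacterium tuberculosis (UniProt P9WPC5 and UniProt P9WPC3). Tested at 50 µM. Direction is inferred from only a few compounds that gave an IC50; most scored high, so higher reads as stronger inhibition. Most other retested compounds had strongly negative values. Of about 69,000 compounds tested this way, about 10 (0.015%) reached 50% or more in at least one test.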
PfKRS1: 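Lysine-tRNA ligase, Plasmodium falciparum 3D7 (UniProt Q8IDJ8). Enzyme assay of the cytosolic lysyl-tRNA synthetase in 384-well plates, read by luminescence. Concentration: 30 µM. Direction is inferred from only a few compounds that gave an IC50; most scored high, so higher reads as stronger inhibition. Size under these conditions: about 69,000 compounds, about 49 of them at 50% or above in at least one test.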
MtTrpRS: 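Tryptophan-tRNA ligase, Mycobacterium tuberculosis (UniProt P9WFT3). Enzyme assay of tryptophanyl-tRNA synthetase; the read-out is not stated. Compounds at 10 µM. Direction is not recorded; retested compounds ran higher, which suggests that high means inhibition. Size under these conditions: about 65,000 compounds, about 64 of them at 50% or above in at least one test.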
LiHisRS: 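Enzyme assay of histidyl-tRNA synthetase; the read-out is not stated. Target: Histidine-tRNA ligase, Leishmania infantum (UniProt A4I591). Concentration: 30 µM. Higher reads as stronger inhibition (inferred: compounds with an IC50 in retests scored well above the rest). The assay is labelled LdHisRS but filed under L. infantum. Size under these conditions: about 69,000 compounds, about 410 of them at 50% or above in at least one test.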
TcHisRS: 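Histidine-tRNA ligase, Trypanosoma cruzi CL Brener (UniProt Q4DA54). Enzyme assay of histidyl-tRNA synthetase; the read-out is not stated. Tested at 30 µM. Direction is inferred from retests: higher values go with stronger inhibition. Of about 69,000 compounds tested this way, about 31 (0.045%) reached 50% or more in at least one test.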
Leishmania in macrophages: 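Cell assay of Leishmania donovani living inside macrophages; the read-out is not stated. Compounds at 30 µM. The record gives no direction; compounds that gave an IC50 in retests scored well above the rest, so higher reads as stronger inhibition. Size under these conditions: about 69,000 compounds, about 1,000 of them at 50% or above in at least one test.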

Values are the deposited “Percent Effect”, in %. The controls that fix the scale are not given in the record; negative values are as filed. Compounds were drawn at random from those tested, without regard to their results. Two or more numbers in one place are separate tests of the same structure; such repeats can differ widely. A dash means the value is not listed here; it may have been measured.

structure	ClpP1P2	PfKRS1	MtTrpRS	LiHisRS	TcHisRS	Leishmania in macrophages
[H][C@@]12CNC[C@]1([H])[C@H]2CN1CCC(c2nnc(Cn3cncn3)n2CC)CC1	-	-	-	-	-	34.54 and 16.08
COc1ccc(C[C@H]2CN(C(=O)c3cnoc3)CC[C@@H]2OC)cc1	3.205	0.6898	0	17.31	6.796	11.64
COCCN1CCN(Cc2c(C3CCNCC3)[nH]c3ncccc23)CC1	1.902	0.9307	-	11.46	3.191	-
O=C(Nc1cccc(Cn2cccn2)c1)N1CCCC(N2CCCC2)C1 (stereo not given)	-4.925	3.707	-5.263	2.083	1.657	18.54
Cc1nnc([C@@H]2CC[C@@H]3[C@@H](CCN3S(=O)(=O)c3cccnc3)O2)o1	-2.441	2.922	3.051	10.53	0.5525	-
Cc1nc(CSCCC(=O)NCc2ccncc2)cs1	4.753	-0.1975	-5.267	14.29	2.907	25.31
c1ccc2oc(N3CCCC4(CCOC4)C3)nc2c1 (stereo not given)	-5.846	8.596	-5.649	8.824	3.704	5.551
CS(=O)(=O)NC[C@]12COC[C@H]1CN(C(=O)N1CCCC1)C2	7.848	2.86	-	13.64	6.349	-
CSCc1cc(F)ccc1CNCc1cccc(O)c1	-10.26	0.381	2.736	16.67	11.88	-9.767
COCc1nn(C(C)C)c2c1CCN(Cc1nccs1)C2.O=C(O)C(F)(F)F	-	-	-	-	-	-18.46
CC(c1cc(F)ccc1F)N(C)Cc1nc2c(cnn2C)c(=O)[nH]1 (stereo not given)	-8.32	0.7782	13.35	-5.505	0.2915	-8.141
Cc1cc(CNC2CCc3nc(C(C)C)nn3C2)on1 (stereo not given)	0.3925	4.966	-2.494	6.742	4.523	-13.29
CC(C)(CNC(=O)c1ccc(Cl)o1)NC(=O)OC(C)(C)C	-4.812	4.504	-0.7401	11.76	9.877	-28.57
O=C(CN1CCS(=O)(=O)CC1)NCc1cccc(Br)c1	12.31	5.434	-0.6353	11.61	3.448	-11.08
Cl.Cl.c1ccc(-c2cnc3n2CCNC32CCNCC2)cc1	-	-	-	-	-	-5.14
CN(Cc1cncnc1)[C@H]1CN(CC2CC2)[C@@H]2CCCO[C@@H]21	-4.557	1.78	-0.5247	18.87	8.108	-
Cc1ccc(Br)c(S(=O)(=O)NCc2ccnn2C)c1	-2.932	-0.4316	0.1032	4.167	1.657	30.33
c1ccc(-c2cnc(CN(Cc3cccnc3)CC3CCCO3)o2)cc1 (stereo not given)	-25.4	-5.025	-4.759	1.205	8.537	-61.4
Cc1nc(CN2C(=O)C[C@@H]3[C@@H]2CCN3C(=O)C2CCOCC2)cs1	-4.503	-2.801	1.234	3.81	0.8264	-
CCn1c(N)nc2cc(C(=O)NCCCc3ccccn3)cnc21	-6.732	7.143	3.399	15.66	1.22	-29.75
CS(=O)(=O)NCC(=O)N[C@H]1CN(c2cnccn2)C[C@@H]1C1CC1	-2.617	0.05457	0.4461	-2.74	0.5405	-2.795
CCc1ccc(C(NCC(N)=O)C(C)(C)C)o1 (stereo not given)	-13.71	5.479	-5.972	2.679	8.621	17.42
Cc1nn(C)c(C)c1C(=O)NCc1cccnc1OC1CCCC1	1.036	10.01	-9.779	11.97	3.784	-3.619
O=C(N1CCOCC1)[C@@]12CCO[C@@H]1CCN(C1CCOCC1)C2	-5.197	2.143	2.905	17.95	-6.098	-
COCc1nn(C(C)C)c2c1CCN(Cc1ccccn1)C2	-10.95	6.882	1.802	17.74	-0.8772	-
CC(=O)N1CCCN(C(C)c2ccc(Br)cc2)CC1 (stereo not given)	22.62	4.505	-9.75	0	2.591	26.17
O=C(c1ccnnc1)N1C[C@@H](OCc2cccnc2)[C@H]2OCCC[C@H]21	-0.7623	0.7659	3.151	22.94	0.4808	-
Cc1noc2ncc(C(=O)NCC3CCS(=O)(=O)C3)cc12 (stereo not given)	-98.6	0.5604	0.832	16.51	3.529	14.76
O=C(COc1cccc2c1CCC2=O)NCc1ccccc1F	0.9781	6.373	-7.521	25.71	2.174	1.532
COc1cccc(-c2cc(C(=O)NCCCn3nc(C)cc3C)[nH]n2)c1	-4.439	3.213	-0.5025	17.86	4.386	35.19
CC(Cc1ccc2c(c1)OCO2)c1cn(CCN2CCCC2)nn1 (stereo not given)	7.681	0.5218	-0.8256	19.17	10.53	4.891
CN(Cc1cn2c(n1)CN(C(=O)c1ccc[nH]1)CC2)Cc1ccco1	1.717	-1.902	4.223	16.81	7.527	-
CCOCCn1nnc(C2(NC(=O)c3ccccc3)CCCC2)n1	0.2546	7.186	0.1776	20.39	3.734	1.124
CCn1cnnc1CCNC(=O)C1COc2ccc(OC)cc2C1 (stereo not given)	-2.785	0.07454	-0.2064	15.83	6.579	15.43
CC(C)n1ncc2cc(NC(=O)N3CCC(C(N)=O)C3)cnc21 (stereo not given)	-9.187	-1.885	8.796	-1.818	1.17	-30.17
CCOCC(=O)N1CCc2c(CN(C)C)nn(C(C)C)c2C1	-11.61	13.1	0.3236	18.97	6.329	-
CC1CN(CC2CCCC2)CCN1c1ccc2nncn2n1 (stereo not given)	-6.109	-4.862	-2.638	15.09	10	23.23
CCc1nnc2n1CC(CNc1cnc3ccccc3n1)CC2 (stereo not given)	-43.17	3.572	-3.617	6.383	6.358	-17.67
Cc1cc(NC(=O)N2CCC[C@@H]2CO)nn1-c1ccccc1Cl	-12.99	1.027	0.08211	7.752	3.571	48.21
CC(C)COc1cncc(N2CCCN(c3ncccn3)CC2)n1	-4.782	4.129	-2.449	12.39	1.786	-13.45
Cc1nnc([C@H]2CCN(CCCc3ccccc3)C2)o1	-17.07	0.8929	9.111	8.333	2.97	-19.3
C[C@@H]1C[C@@H]2CCN(Cc3ccccn3)C[C@H]2O1	-2.914	9.722	3.438	15.6	15.97	-
Cc1nc(CN(C)Cc2cnc(N3CCOCC3)s2)no1	15.66	-2.445	3.289	8.392	11.44	0.3098
CC(=O)c1cc(C(=O)NC2(c3ccccc3)CCC2)n(C)c1	-3.662	0.837	-0.7064	9.859	5.732	-7.932
CCN1CCN(C)C(=O)C12CCN(Cc1csc(C)n1)CC2	-13.02	3.571	-	15.38	13.97	-
Cc1cc(=O)n2nc(Oc3ccc(Cl)c(C)c3)sc2n1	12.72	0.832	-1.53	18.07	9.453	74.91
Cc1cc(CN2CC[C@H]3C[C@@H](c4nccs4)O[C@@H]3C2)no1	0.7154	2.709	-0.8403	15.6	15.97	-
Cc1cc(CNc2cc(Cl)ccc2Cl)no1	-0.9373	5.322	0.07424	-36.17	-4.58	25.34
[H][C@@]12C[C@H](C(=O)N3CCCC3)[C@@]([H])(CN(c3ncc(F)cn3)C1)O2	-	-	-	-	-	2.968
Cc1ccc(C(=O)N2CC(=O)N(Cc3cccs3)CC(O)C2)cc1 (stereo not given)	16.43	6.832	-	14.29	6.742	5.602
Cc1ccc(CN2C[C@H]3C[C@H](C(=O)NCc4cccnc4)[C@@H](C2)O3)o1	-8.258	-0.8065	-2.035	10.26	3.681	-
CC(C)c1cc(COCCCC(=O)O)no1	1.828	2.601	-	26.8	0	18.36
Cn1nc(C(=O)NC2(c3ccc(Cl)cc3)CCCC2)ccc1=O	12.58	-3.583	0.5663	19.1	6.736	16.89

Some entries from above, unchanged:

Cc1cc(CNC2CCc3nc(C(C)C)nn3C2)on1 (stereo not given) gave ClpP1P2: 0.3925%; PfKRS1: 4.966%; MtTrpRS: -2.494%; LiHisRS: 6.742%; TcHisRS: 4.523%; Leishmania in macrophages: -13.29%.
Cc1nc(CN(C)Cc2cnc(N3CCOCC3)s2)no1 gave ClpP1P2: 15.66%; PfKRS1: -2.445%; MtTrpRS: 3.289%; LiHisRS: 8.392%; TcHisRS: 11.44%; Leishmania in macrophages: 0.3098%.
COCc1nn(C(C)C)c2c1CCN(Cc1ccccn1)C2 gave ClpP1P2: -10.95%; PfKRS1: 6.882%; MtTrpRS: 1.802%; LiHisRS: 17.74%; TcHisRS: -0.8772%.
Cc1noc2ncc(C(=O)NCC3CCS(=O)(=O)C3)cc12 (stereo not given) gave ClpP1P2: -98.6%; PfKRS1: 0.5604%; MtTrpRS: 0.832%; LiHisRS: 16.51%; TcHisRS: 3.529%; Leishmania in macrophages: 14.76%.
CC(C)(CNC(=O)c1ccc(Cl)o1)NC(=O)OC(C)(C)C gave ClpP1P2: -4.812%; PfKRS1: 4.504%; MtTrpRS: -0.7401%; LiHisRS: 11.76%; TcHisRS: 9.877%; Leishmania in macrophages: -28.57%.
CC1CN(CC2CCCC2)CCN1c1ccc2nncn2n1 (stereo not given) gave ClpP1P2: -6.109%; PfKRS1: -4.862%; MtTrpRS: -2.638%; LiHisRS: 15.09%; TcHisRS: 10%; Leishmania in macrophages: 23.23%.